Publication PMC6736568, “Discovery of Novel Anti-cryptosporidial Activities From Natural Products by in vitro High-Throughput Phenotypic Screening” (Frontiers in Microbiology, 2019)

Tested on: HCT-8 host cells (Hs18S)

Cl.NCCC[C@H](N)C(=O)O [ORNITHINE HYDROCHLORIDE]
Hs18S ΔCT: -0.07
Cytotoxicity (%) (10 µM): -5.2
